# Reference: the supplement of paper PMC12819154, “High-throughput peptide-centric local stability assay extends protein–ligand identification to membrane proteins, tissues and bacteria” (Nature Structural & Molecular Biology, 2025)
# Chains of the proteins cited; added tags and fusions are not shown. Lines headed by an entry give the natural chain unless they say otherwise; changes in a name come on top.
# UniProt P0AEZ1: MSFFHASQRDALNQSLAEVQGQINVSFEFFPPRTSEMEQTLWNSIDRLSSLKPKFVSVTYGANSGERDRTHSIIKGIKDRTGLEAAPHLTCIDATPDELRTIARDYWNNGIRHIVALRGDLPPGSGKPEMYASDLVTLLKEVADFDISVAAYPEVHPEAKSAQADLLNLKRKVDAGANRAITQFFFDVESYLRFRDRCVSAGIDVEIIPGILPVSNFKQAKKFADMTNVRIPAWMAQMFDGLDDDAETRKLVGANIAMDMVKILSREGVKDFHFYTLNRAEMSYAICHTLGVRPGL
# The other results are listed elsewhere or left out. Small differences around the control level are noise.
# Legend:
# Assay in all cases: log2 fold change of tryptic peptide abundance, ligand vs vehicle (limited proteolysis) (log2 ratio); higher = more trypsin-susceptible (destabilized)
# UniProt P0AES0 = target: T1, UniProt P0AES0; conditions: peptide sequence: ESDIEPLIVVK; peptide start residue: 608; ligand concentration: 10 uM; sample: E. coli crude lysate
# T1 sequence (whole entry): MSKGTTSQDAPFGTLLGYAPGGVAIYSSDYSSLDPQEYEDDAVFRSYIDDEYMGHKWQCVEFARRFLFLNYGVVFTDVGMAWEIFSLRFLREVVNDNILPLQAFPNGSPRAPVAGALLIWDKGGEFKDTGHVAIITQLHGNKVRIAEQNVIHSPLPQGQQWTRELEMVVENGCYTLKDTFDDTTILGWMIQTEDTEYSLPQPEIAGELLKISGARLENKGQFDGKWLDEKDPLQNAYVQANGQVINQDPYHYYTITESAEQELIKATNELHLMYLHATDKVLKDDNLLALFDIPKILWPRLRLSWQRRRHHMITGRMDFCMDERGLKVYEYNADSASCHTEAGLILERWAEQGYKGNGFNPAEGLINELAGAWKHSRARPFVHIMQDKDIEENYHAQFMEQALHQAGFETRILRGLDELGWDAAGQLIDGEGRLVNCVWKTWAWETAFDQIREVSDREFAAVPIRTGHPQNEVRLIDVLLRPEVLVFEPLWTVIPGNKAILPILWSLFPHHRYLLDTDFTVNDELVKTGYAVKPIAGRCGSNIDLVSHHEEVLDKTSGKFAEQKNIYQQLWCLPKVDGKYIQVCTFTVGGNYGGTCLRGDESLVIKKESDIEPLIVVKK
# UniProt P0AEX5 = target: T2, UniProt P0AEX5; conditions: peptide sequence: THLNFQR; peptide start residue: 201; ligand concentration: 10 uM; sample: E. coli crude lysate
# T2 sequence (whole entry): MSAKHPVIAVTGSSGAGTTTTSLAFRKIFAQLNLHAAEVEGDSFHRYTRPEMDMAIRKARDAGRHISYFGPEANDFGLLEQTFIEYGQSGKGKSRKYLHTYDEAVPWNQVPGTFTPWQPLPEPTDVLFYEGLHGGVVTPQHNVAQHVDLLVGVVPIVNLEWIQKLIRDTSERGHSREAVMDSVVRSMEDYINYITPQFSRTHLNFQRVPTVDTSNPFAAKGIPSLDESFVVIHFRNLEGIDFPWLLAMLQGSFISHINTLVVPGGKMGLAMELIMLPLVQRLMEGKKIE
# UniProt P0AEZ1 = conditions: peptide sequence: DFHFYTLNR; peptide start residue: 271; ligand concentration: 10 uM; sample: E. coli crude lysate
structure (smiles),measurement,setting,value
CC1(C)S[C@@H]2[C@H](NC(=O)[C@H](N)c3ccccc3)C(=O)N2[C@H]1C(=O)O [ampicillin],log2 fold change,UniProt P0AES0,-0.252
same,log2 fold change,UniProt P0AEX5,-0.158
same,log2 fold change,UniProt P0AEZ1,0.494
